Measured values from PMC2770259.
Results are given in words; binding and its absence hold for the method and conditions named. Binding seen in cells or lysates may run through a third protein. These calls come from enrichment with a bait or labelling near it, and not all partners need be listed. No binding means not detected with the bait. Where a sequence is shown, tags or fusion partners need not be part of it. Blank lines part the entries; values can stand above or below the binder they belong to.

Chains of the proteins cited; added tags and fusions are not shown.
UniProt Q9UT79: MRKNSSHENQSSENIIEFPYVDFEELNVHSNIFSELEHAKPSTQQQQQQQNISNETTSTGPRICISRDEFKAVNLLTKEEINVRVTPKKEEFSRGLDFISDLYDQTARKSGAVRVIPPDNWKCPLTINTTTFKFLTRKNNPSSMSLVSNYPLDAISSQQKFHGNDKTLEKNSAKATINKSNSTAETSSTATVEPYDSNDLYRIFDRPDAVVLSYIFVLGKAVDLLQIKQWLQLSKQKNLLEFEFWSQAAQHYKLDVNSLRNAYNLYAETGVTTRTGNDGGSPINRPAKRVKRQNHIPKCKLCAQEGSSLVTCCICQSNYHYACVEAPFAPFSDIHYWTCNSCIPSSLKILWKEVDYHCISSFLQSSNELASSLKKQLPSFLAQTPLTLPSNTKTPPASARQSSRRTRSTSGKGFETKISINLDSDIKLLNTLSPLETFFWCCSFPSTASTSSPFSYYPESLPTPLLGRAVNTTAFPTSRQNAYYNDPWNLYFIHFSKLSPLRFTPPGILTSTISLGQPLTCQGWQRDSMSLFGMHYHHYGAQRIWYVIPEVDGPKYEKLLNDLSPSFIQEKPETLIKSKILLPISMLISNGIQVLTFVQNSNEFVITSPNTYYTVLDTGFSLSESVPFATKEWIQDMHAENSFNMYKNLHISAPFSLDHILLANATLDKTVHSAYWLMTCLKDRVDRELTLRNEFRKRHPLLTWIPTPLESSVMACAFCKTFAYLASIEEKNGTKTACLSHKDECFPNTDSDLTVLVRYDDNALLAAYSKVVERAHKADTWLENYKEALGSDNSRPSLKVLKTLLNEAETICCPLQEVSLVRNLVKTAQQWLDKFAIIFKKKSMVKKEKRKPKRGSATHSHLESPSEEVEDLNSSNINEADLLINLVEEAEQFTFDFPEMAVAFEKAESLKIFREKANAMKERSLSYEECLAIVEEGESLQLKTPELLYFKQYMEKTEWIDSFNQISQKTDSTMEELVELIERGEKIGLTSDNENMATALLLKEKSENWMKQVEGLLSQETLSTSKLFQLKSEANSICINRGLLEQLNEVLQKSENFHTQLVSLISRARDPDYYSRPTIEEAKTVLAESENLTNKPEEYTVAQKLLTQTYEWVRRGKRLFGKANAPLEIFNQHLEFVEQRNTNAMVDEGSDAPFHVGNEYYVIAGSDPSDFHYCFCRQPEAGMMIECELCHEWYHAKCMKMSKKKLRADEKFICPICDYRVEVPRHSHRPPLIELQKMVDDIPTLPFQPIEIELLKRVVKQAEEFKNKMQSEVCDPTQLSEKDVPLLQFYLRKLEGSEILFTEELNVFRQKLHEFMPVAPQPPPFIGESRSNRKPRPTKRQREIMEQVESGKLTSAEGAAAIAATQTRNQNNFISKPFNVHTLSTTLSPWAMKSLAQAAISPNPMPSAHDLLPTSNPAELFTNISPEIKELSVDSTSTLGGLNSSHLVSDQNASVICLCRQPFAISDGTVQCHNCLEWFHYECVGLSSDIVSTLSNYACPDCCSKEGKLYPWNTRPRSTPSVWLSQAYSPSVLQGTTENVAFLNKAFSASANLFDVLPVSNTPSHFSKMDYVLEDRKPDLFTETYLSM

What was measured:
Test in all cases: affinity purification with mass spectrometry; TAP-tag purification from S. pombe strains with TAP-tagged baits (Yaf9, Swc4, Swc2, Msc1, Swr1, H2A.Z/Pht1), LC-MS/MS and Coomassie stained PAGE gels; H2A.Z-TAP also in msc1Δ and swr1Δ strains; protocol in ref. 47
Swc4 (S. pombe) = target: T1, Swc4 (S. pombe) (UniProt O14308)
T1 sequence: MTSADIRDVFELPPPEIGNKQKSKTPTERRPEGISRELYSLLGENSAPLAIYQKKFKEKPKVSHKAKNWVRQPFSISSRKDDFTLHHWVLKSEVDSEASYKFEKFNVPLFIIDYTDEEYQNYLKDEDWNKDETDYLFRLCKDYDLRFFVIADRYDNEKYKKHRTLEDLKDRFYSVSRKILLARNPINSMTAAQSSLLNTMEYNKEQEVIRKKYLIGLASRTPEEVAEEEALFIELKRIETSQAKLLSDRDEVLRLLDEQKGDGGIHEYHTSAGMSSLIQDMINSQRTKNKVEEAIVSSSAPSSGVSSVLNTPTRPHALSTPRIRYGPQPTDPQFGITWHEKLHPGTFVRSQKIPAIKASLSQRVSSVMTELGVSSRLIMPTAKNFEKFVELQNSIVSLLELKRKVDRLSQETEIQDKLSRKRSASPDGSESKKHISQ

[1] = target: Msc1 (JmjC-domain protein of the Lid/Jarid1 family) (S. pombe) (UniProt Q9UT79)
Yaf9 (S. pombe) = target: T2, Yaf9 (S. pombe) (UniProt Q10319)
T2 sequence: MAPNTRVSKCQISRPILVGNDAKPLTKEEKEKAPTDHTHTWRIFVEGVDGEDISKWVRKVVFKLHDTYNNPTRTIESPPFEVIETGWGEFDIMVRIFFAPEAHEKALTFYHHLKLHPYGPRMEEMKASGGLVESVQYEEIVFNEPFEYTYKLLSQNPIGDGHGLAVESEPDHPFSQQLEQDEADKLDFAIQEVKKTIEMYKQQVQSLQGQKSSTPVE

Swc2 (S. pombe) = target: T3, Swc2 (S. pombe) (UniProt Q9P790)
T3 sequence: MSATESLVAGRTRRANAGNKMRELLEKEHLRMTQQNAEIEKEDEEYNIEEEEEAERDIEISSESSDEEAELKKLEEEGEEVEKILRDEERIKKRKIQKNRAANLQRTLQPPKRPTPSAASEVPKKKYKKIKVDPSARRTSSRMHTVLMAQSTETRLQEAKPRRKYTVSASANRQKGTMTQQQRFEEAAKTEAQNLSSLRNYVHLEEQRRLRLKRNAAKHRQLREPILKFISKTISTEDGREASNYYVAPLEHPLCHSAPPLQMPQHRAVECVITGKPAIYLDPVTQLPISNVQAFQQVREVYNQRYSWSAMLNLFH

[2] = target: T4, Swr1 (catalytic subunit of the Swr1 complex) (S. pombe) (UniProt O13682)
T4 sequence: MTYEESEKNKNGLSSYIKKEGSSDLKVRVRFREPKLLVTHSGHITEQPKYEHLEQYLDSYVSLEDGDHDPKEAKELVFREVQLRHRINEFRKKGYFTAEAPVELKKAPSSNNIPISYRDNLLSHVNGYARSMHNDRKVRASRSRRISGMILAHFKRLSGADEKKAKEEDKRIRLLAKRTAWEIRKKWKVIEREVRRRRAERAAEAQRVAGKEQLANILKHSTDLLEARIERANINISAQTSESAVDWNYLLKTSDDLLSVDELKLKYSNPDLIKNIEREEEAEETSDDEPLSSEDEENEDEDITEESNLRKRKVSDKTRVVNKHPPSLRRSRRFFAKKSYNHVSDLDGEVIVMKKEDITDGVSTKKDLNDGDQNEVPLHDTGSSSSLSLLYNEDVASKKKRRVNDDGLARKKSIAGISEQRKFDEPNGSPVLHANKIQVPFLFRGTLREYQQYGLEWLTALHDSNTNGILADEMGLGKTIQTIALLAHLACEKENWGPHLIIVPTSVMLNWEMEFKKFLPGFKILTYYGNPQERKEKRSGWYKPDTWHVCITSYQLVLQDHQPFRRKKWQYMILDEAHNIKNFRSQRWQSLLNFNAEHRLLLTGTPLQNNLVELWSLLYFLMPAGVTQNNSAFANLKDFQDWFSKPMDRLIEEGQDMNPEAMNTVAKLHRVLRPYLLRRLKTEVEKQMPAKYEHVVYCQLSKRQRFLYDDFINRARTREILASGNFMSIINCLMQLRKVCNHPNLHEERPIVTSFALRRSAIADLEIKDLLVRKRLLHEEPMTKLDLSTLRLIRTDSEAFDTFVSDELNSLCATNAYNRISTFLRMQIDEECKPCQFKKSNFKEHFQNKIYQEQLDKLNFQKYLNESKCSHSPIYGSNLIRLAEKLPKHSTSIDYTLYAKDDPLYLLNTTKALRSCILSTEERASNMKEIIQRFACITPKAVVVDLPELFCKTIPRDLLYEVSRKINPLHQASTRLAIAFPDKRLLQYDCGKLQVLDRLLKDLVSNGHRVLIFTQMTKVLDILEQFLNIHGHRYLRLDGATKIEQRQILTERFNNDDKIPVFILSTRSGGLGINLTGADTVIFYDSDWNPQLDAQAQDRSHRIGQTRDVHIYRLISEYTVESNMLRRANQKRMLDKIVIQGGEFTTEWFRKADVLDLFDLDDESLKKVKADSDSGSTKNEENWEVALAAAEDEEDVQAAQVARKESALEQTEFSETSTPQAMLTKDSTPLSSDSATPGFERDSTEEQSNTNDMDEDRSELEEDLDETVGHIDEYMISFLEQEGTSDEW

binding (Swc4 (S. pombe)): binds | binding [1]: binds | binding (Yaf9 (S. pombe)): binds
B1: Swc2 (protein, UniProt Q9P790 1-316)
chain: T3 sequence

binding [1]: binds | binding (Yaf9 (S. pombe)): binds | binding (Swc2 (S. pombe)): binds
B2: Swc4 (protein, UniProt O14308 1-437)
chain: T1 sequence

binding (Swc4 (S. pombe)): binds | binding [1]: binds | binding (Swc2 (S. pombe)): binds
B3: Yaf9 (protein, UniProt Q10319 1-217)
chain: T2 sequence

binding [1]: binds
B4: Swc5 (protein, UniProt O74897 1-215)
chain: MTEKLIDFGLEQEEEDTEFVPGDSTDTESSFSDADSSEEEFVEEKEASQVQSTKSKIATSESEDVTLKNIAKKNKRERNDKLIPQQSNESEAIEKPVQSTTEVELKTNELAESNSSVAVEGDENSYAETPKKKHSLIRKRRKSPLDSSSAQKVLKKNKLNTLEQAQQNWSKYIKEQDIQDELRIANKDGYVERQEFLAKTRAAHEEKIREMKKLP

binding (Swc4 (S. pombe)): no binding | binding [1]: no binding | binding [2]: no binding | binding (Yaf9 (S. pombe)): no binding | binding (Swc2 (S. pombe)): no binding
B5: Nap1 histone chaperone (protein, UniProt O59797 1-393)
chain: MVENVNINNKRAGKMSAAPTPHNTPSGTSAPNFGAKAPQVNTIDEGDENLEAIDGKLGSLLHLTSEGVSELPEAVQRRISGLRGLQKRYSDLESQFQKELFELEKAYAKKYAPIFKRRSEVVRGADEPTEEEIKKGEAADENEKKEPTSSESKKQEGGDDTKGIPEFWLTAMKNVLSLSEMITPEDEGALSHLVDIRISYMEKPGFKLEFEFAENPFFTNKILTKTYYYMEESGPSNVFLYDHAEGDKVDWKENADLTVRTVTKKQRNKNTKQTRVVKVSVPRDSFFNFFNPPTPPSEEDEESESPELDELLELDYQIGEDFKEKLIPRAVEWFTGEALALENYDGFSDLDVEEDEDDVESSSNEEVSDSDEEDSDSKHTAHGQQNAAECRQQ

binding (Swc4 (S. pombe)): binds | binding [1]: binds | binding (Yaf9 (S. pombe)): binds | binding (Swc2 (S. pombe)): binds
B6: Swr1 (catalytic subunit of the Swr1 complex) (protein, UniProt O13682 1-1288)
chain: T4 sequence
